Test results: the supplement of paper PMC7125110
± gives the standard error. The uncertainty is large for many entries.

B1: glmS ribozyme (parent)
chain: AUAAAAGCGCCAGAACUACAGAAAUGUAGUUGACGAGGAGGAGGUUUAUCGAAUUUUCGGCGGAUGCCUCCAAA

Variants of: B1
Assay: self-cleavage kobs at 640 uM GlcN6P; higher = faster cleavage; RNA array
Conditions: with glucosamine-6-phosphate
In short: (§1)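 Tiles of sequenced MiSeq chips were imaged over ~14 h at 37 °C. On them, barcoded ribozyme variants had been transcribed in situ by E. coli RNA polymerase and were tracked via a hybridised Cy3 probe while glucosamine-6-phosphate (40 μM to 10 mM) in HEPES/KCl/Mg(OAc)2 buffer flowed in. Per-tile medians, normalised to baseline and to non-cleaving reference variants, were fit to one- or two-exponential decays for kobs, and weighted Michaelis–Menten fits gave kcat and KM.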

Variant	self-cleavage kobs at 640 uM GlcN6P
C8U C10U C70U	3.08e-05 ± 2.6e-05 s⁻¹
U54G C58G	2.29e-05 ± 1.4e-05 s⁻¹
A12G C68G	2.44e-05 ± 2.2e-05 s⁻¹
C10A G60C G63C C67A C68G C70G C71U	3.19e-05 ± 2.2e-05 s⁻¹
C11U A52G C70U A72U	2.5e-05 ± 2.4e-05 s⁻¹
C10U C67U C70U	3.13e-05 ± 2.7e-05 s⁻¹
U45G U69G	4.86e-05 ± 3.4e-05 s⁻¹
C8U A48C G51A U69A	5.14e-05 ± 2.6e-05 s⁻¹
G13C G40A C58A	2.35e-05 ± 2.3e-05 s⁻¹
C8U G62A	2.54e-05 ± 1.7e-05 s⁻¹
U46G C58A	2.13e-05 ± 1.9e-05 s⁻¹
G13A A52G	2.36e-05 ± 1.7e-05 s⁻¹
A52U G66A	2.05e-05 ± 1.1e-05 s⁻¹
U54G C68U C70A	2.71e-05 ± 2e-05 s⁻¹
G13A G66A	5.2e-05 ± 3.6e-05 s⁻¹
A12U C50G	0.00102 ± 0.00058 s⁻¹
G40C C67U	1.49e-05 ± 1.1e-05 s⁻¹
C11G U69C	2.54e-05 ± 2.1e-05 s⁻¹
C10G G59U	1.65e-05 ± 1.3e-05 s⁻¹
G13A G29C	2.96e-05 ± 1.5e-05 s⁻¹
A6U U47G	2.39e-05 ± 1.7e-05 s⁻¹
A42G U57G	2.61e-05 ± 2.1e-05 s⁻¹
G13C A15U G51U C67U C68G	5.09e-05 ± 2.6e-05 s⁻¹
A12U G37A C70G	1.32e-05 ± 1.1e-05 s⁻¹
C10A U31C U47A C50G G60C C61U	0.000283 ± 0.00021 s⁻¹
G32A C50U C67U C71A	5.23e-05 ± 3e-05 s⁻¹

Variants of: B1
Assay: KM; higher = weaker cofactor use; RNA array
Conditions: with glucosamine-6-phosphate
In short: as §1

Variant	KM
A48C U55C	2810 ± 1600 µM
G59U U65G	13.8 ± 13 µM
U49G U56C	352 ± 280 µM
G44U A53U	1460 ± 1400 µM
U45G U46G	4120 ± 2300 µM
U45A A48C	2130 ± 560 µM
U55G C71U	280 ± 250 µM
U45A C58U	4210 ± 1900 µM
A39U U54G	1320 ± 760 µM
A64G C71G	811 ± 570 µM
U54G C58G	4280 ± 1000 µM
G41C U46A	3110 ± 830 µM
G41U U47G	3850 ± 2600 µM
A39U A53C	2890 ± 1100 µM
U55A G59U	1940 ± 1300 µM
U45G U69G	2570 ± 2200 µM
G41A U56A	1110 ± 630 µM
G41A U56G	1740 ± 310 µM
G41C U47C	708 ± 690 µM
G66A C67A C71U	4670 ± 3000 µM
G40U U47G	908 ± 250 µM
C61G C68U	313 ± 310 µM
U56A G60A	985 ± 710 µM
A64G G66C	2990 ± 1700 µM
G51U C61G	28.5 ± 24 µM

Variant	KM
G43A C70U	1370 ± 970 µM
U56A C68U	359 ± 220 µM
A48C G66A	2900 ± 1700 µM
G44A U55G	1380 ± 1200 µM
A53C U56G	1830 ± 570 µM
G40C U45G	1120 ± 830 µM
G40C U45A	823 ± 200 µM
A39U G44U	805 ± 540 µM
U46G C58A	10000 ± 4400 µM
U54A C71G	145 ± 94 µM
A52U G66A	30400 ± 17000 µM
C50U U57G	195 ± 110 µM
U54G C68U C70A	1060 ± 560 µM
U65G U69C	6890 ± 3800 µM
C50U G66A	20000 ± 12000 µM
G40U A48G	18200 ± 13000 µM
G40C C67U	2080 ± 1100 µM
A53C G60A	7110 ± 2300 µM
G43U U54G	1500 ± 1400 µM
C68G	302 ± 260 µM
C50A U55C	897 ± 650 µM
U56C C58A	6170 ± 3600 µM
U46G G66A C70G	1040 ± 830 µM
G59U	1210 ± 130 µM
G44A G66U	2150 ± 520 µM

Pulled one by one from above, 3 records:
Variant	KM
C61G C68U	313 ± 310 µM
A64G G66C	2990 ± 1700 µM
U54G C58G	4280 ± 1000 µM

In a second layout: entries from further up

| Variant | KM |
| --- | --- |
| G43U U54G | 1500 ± 1400 µM |
| C68G | 302 ± 260 µM |
| C50A U55C | 897 ± 650 µM |

Later entries:

Variant	KM
A42C C70G	1410 ± 550 µM
G44A U56A	2650 ± 150 µM
U57A G60U	13.6 ± 10 µM
A52G U65G	4110 ± 2800 µM
A52G U65A	6000 ± 4000 µM
C67U C71U	2810 ± 1700 µM
U47G C70U	45.7 ± 30 µM
A42G U57G	514 ± 77 µM
U54A U69A	65.2 ± 58 µM
U69C C70U	854 ± 350 µM
A53U C70A	79.6 ± 43 µM
A39U C58U	440 ± 240 µM
G51A C61A	234 ± 230 µM
U55A U65G	5810 ± 3200 µM
U45A U55G	136 ± 77 µM
C58G G60U	3710 ± 2000 µM
G66A C68G	196 ± 150 µM
A39U G40A C67A	760 ± 190 µM
A42G C58A	2480 ± 390 µM
A52C U54A	368 ± 130 µM
G41C U45G G66C	6290 ± 3200 µM
U47G C67A	488 ± 380 µM
U56A C70G	75 ± 43 µM

Variants of: B1
Assay: self-cleavage kobs at 160 uM GlcN6P; higher = faster cleavage; RNA array
Conditions: with glucosamine-6-phosphate
In short: as §1

Variant	self-cleavage kobs at 160 uM GlcN6P
A48C U55C	2.74e-05 ± 1.9e-05 s⁻¹
A6U U69G	3.21e-05 ± 1.8e-05 s⁻¹
G41A U56G	2.59e-05 ± 2.2e-05 s⁻¹
G59U	< 1e-05 s⁻¹
A52G U65A	2.25e-05 ± 2e-05 s⁻¹

Variants of: B1
Assay: self-cleavage kobs at 40 uM GlcN6P; higher = faster cleavage; RNA array
Conditions: with glucosamine-6-phosphate
In short: as §1

Variant	self-cleavage kobs at 40 uM GlcN6P
G38U C50G U55G U57G	3.63e-05 ± 2.5e-05 s⁻¹
G44U A53G	2.51e-05 ± 2.2e-05 s⁻¹
G40C U46G	1.18e-05 ± 1.1e-05 s⁻¹
C11U C50A C70U	4.94e-05 ± 2.5e-05 s⁻¹
C11A U69G C71G	5.17e-05 ± 2.9e-05 s⁻¹
A14U G40C U46C A53G C71G	1.65e-05 ± 1.6e-05 s⁻¹
C11G C50G C68G C71U	4.41e-05 ± 2.3e-05 s⁻¹
C11A C67G	2.33e-05 ± 1.6e-05 s⁻¹
A6U U69G	2.29e-05 ± 1.8e-05 s⁻¹
C10A U30A C58G C67U C70A	3.01e-05 ± 2.4e-05 s⁻¹
A15G U30G G40U	1.51e-05 ± 1.5e-05 s⁻¹
A12G C58A C70G	3.14e-05 ± 1.9e-05 s⁻¹
U45G U69G	3.69e-05 ± 3.1e-05 s⁻¹
A36C G62A C70G	3.85e-05 ± 2.9e-05 s⁻¹
A39C U65G	1.92e-05 ± 9.8e-06 s⁻¹
A15U U46G	1.63e-05 ± 1.2e-05 s⁻¹
A42G U45A U65C	3.05e-05 ± 2.2e-05 s⁻¹
A53G C61U C68G	3.84e-05 ± 2.9e-05 s⁻¹
A12G A42U U69A	2.49e-05 ± 1.6e-05 s⁻¹
C8U A12G C68G C71U	2.47e-05 ± 2.1e-05 s⁻¹

Variant	self-cleavage kobs at 40 uM GlcN6P
G32U A53G	2.23e-05 ± 1.6e-05 s⁻¹
U57G C58G C68U	2.9e-05 ± 2.5e-05 s⁻¹
C11A C50G C61U	4.96e-05 ± 2.6e-05 s⁻¹
G38A A48G U56A C68G	2.85e-05 ± 2.8e-05 s⁻¹
G13U U55C	1.69e-05 ± 1.1e-05 s⁻¹
C16U A53G U69G	4.11e-05 ± 3e-05 s⁻¹
C34A G63U C70U C71G	5.92e-05 ± 3.4e-05 s⁻¹
U31G U55A C67A	5.08e-05 ± 2.7e-05 s⁻¹
C10G A39G G66A C67U C71G	3.32e-05 ± 2.6e-05 s⁻¹
U65G U69C	1.9e-05 ± 1e-05 s⁻¹
G7C A14G C50G	3.35e-05 ± 2.3e-05 s⁻¹
G29C U69C	2e-05 ± 1.9e-05 s⁻¹
G29U C67A C70A	3.11e-05 ± 2.3e-05 s⁻¹
C16A U69G	1.81e-05 ± 1.2e-05 s⁻¹
A15U G32A	1.31e-05 ± 1.2e-05 s⁻¹
G66U C68G	1.53e-05 ± 1.3e-05 s⁻¹
A14C U47A A52G G66C U69G C70A	3.82e-05 ± 2.3e-05 s⁻¹
U31C G40A	1.7e-05 ± 1.1e-05 s⁻¹
A12G U47G	1.37e-05 ± 1.3e-05 s⁻¹
C11A U30A C70G	3.08e-05 ± 2.2e-05 s⁻¹

Variant	self-cleavage kobs at 40 uM GlcN6P
C8A G13A G37U C67U C68U	4.58e-05 ± 2.4e-05 s⁻¹
G38C U69G	2.38e-05 ± 1.7e-05 s⁻¹
A14U G32U	1.03e-05 ± 9e-06 s⁻¹
A12U C58G	2.54e-05 ± 1.3e-05 s⁻¹
U54A U69A	2.42e-05 ± 1.2e-05 s⁻¹
G13C G51U C68G	2.39e-05 ± 2.1e-05 s⁻¹
A12G C71U	< 1e-05 s⁻¹
A53G G66C	3.21e-05 ± 3e-05 s⁻¹
C10A A33G G38U C58A C70U	3.58e-05 ± 2e-05 s⁻¹
G29C G60A U65G C68G	5.19e-05 ± 3.6e-05 s⁻¹
U57A C67G C68U C70U	2.97e-05 ± 2.3e-05 s⁻¹
G66A C68G	2.24e-05 ± 1.2e-05 s⁻¹
U54A U65G C67U	3.8e-05 ± 2.2e-05 s⁻¹
G32A C50U C67U C71A	4.16e-05 ± 2.2e-05 s⁻¹
G7U G9U C11G A12G U47G C67G C68U C70A	3.1e-05 ± 2e-05 s⁻¹
A12G U45A C71U	1.65e-05 ± 1.4e-05 s⁻¹
C8U U54A U55A C67G	4.52e-05 ± 3.6e-05 s⁻¹
A1U G41U C70G C71U	2.6e-05 ± 2.2e-05 s⁻¹
A15U C34G C50A A52G C71U	2.63e-05 ± 2e-05 s⁻¹

Variants of: B1
Assay: self-cleavage kobs at 10000 uM GlcN6P; higher = faster cleavage; RNA array
Conditions: with glucosamine-6-phosphate
In short: as §1

Variant	self-cleavage kobs at 10000 uM GlcN6P
C11U C50A C70U	2.36e-05 ± 2.3e-05 s⁻¹
A6U U69G	1.97e-05 ± 1.3e-05 s⁻¹
A12G C68G	2.46e-05 ± 1.3e-05 s⁻¹
C10A U30A C58G C67U C70A	2.94e-05 ± 1.7e-05 s⁻¹
A39U G44U	0.00948 ± 0.0081 s⁻¹
C8U A12G C68G C71U	1.93e-05 ± 1.9e-05 s⁻¹
C11A C50G C61U	4.09e-05 ± 3e-05 s⁻¹
C16A U69G	0.00306 ± 0.0017 s⁻¹
G66U C68G	1.65e-05 ± 1e-05 s⁻¹
A14C U47A A52G G66C U69G C70A	3.5e-05 ± 1.8e-05 s⁻¹
C8A G13A G37U C67U C68U	2.92e-05 ± 2.1e-05 s⁻¹
A53U C70A	0.0022 ± 0.0011 s⁻¹
A39U C58U	1.78e-05 ± 9e-06 s⁻¹
G32A C50U C67U C71A	2.76e-05 ± 2.1e-05 s⁻¹

For convenience, some entries already given.
Variant	self-cleavage kobs at 10000 uM GlcN6P
A53U C70A	0.0022 ± 0.0011 s⁻¹
A39U C58U	1.78e-05 ± 9e-06 s⁻¹
G32A C50U C67U C71A	2.76e-05 ± 2.1e-05 s⁻¹

Variants of: B1
Assay: self-cleavage kobs at 2500 uM GlcN6P; higher = faster cleavage; RNA array
Conditions: with glucosamine-6-phosphate
In short: as §1

Variant	self-cleavage kobs at 2500 uM GlcN6P
C10U C67U C70U	2.42e-05 ± 1.9e-05 s⁻¹
U45G U69G	7.41e-05 ± 3.8e-05 s⁻¹
G41C U47C	3.53e-05 ± 1.9e-05 s⁻¹
U56A G60A	2.06e-05 ± 1.9e-05 s⁻¹
C8U G62A	1.28e-05 ± 1.1e-05 s⁻¹
U57G C58G C68U	3.96e-05 ± 2.2e-05 s⁻¹
C50U G66A	1.35e-05 ± 1.2e-05 s⁻¹
G40U A48G	1.03e-05 ± 1e-05 s⁻¹
C8A G13A G37U C67U C68U	3.62e-05 ± 1.9e-05 s⁻¹
G13C G51U C68G	0.000628 ± 0.00063 s⁻¹
A53U C70A	0.00126 ± 0.00084 s⁻¹
A39U C58U	1.77e-05 ± 1.7e-05 s⁻¹
